PubChem BioAssay AID1259405 | NCATS, 2018

Screen: 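Mouse-designed siRNAs used to find CHO productivity engineering targets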 (primary screen)
Cell system: Chinese hamster CHO-K1 ovary cells with stable secreted eGFP expression
Reagent: single siRNA against mouse genes, 0.8 pmol siRNA per well (2 µl of 400 nM stock)
Time to read-out: 3 days
Measured: 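Percent of the per-plate non-targeting control median for intracellular GFP per well by laser scanning cytometry and for cell viability by ATP luminescence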
Direction: GFP, % of control: higher = more GFP per well, higher productivity; viability (ATP), % of control: higher = more viable cells (more ATP)
Active means: 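Called active when intracellular GFP, relative to negative control, is at or above 120%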
Shown is a random part of about 50,000 reagents tested. About 4,000 of all reagents (8%) count as active. 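Mouse siRNA library applied to hamster cells; one well for each siRNA.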 Reagents against one gene are numbered here.

gene,reagent no.,"GFP, % of control","viability (ATP), % of control",activity call
Irf5 (interferon regulatory factor 5),1,43.9,45.3,inactive
Irf5 (interferon regulatory factor 5),2,80.9,59.3,inactive
Irf5 (interferon regulatory factor 5),3,111,96,inactive
Terb1 (telomere repeat binding bouquet formation protein 1),1,151,85,active
Terb1 (telomere repeat binding bouquet formation protein 1),2,90.5,81.5,inactive
Terb1 (telomere repeat binding bouquet formation protein 1),3,103,97.6,inactive
Cadps (Ca2+-dependent secretion activator),1,87.9,92.5,inactive
Cadps (Ca2+-dependent secretion activator),2,78.2,84.1,inactive
Fbxo34 (F-box protein 34),1,53.4,59.8,inactive
Fbxo34 (F-box protein 34),2,67.9,94.4,inactive
Fbxo34 (F-box protein 34),3,87.2,58.9,inactive
Or52h2 (olfactory receptor family 52 subfamily H member 2),1,157,83.1,active
Or52h2 (olfactory receptor family 52 subfamily H member 2),2,71.1,73.1,inactive
Or52h2 (olfactory receptor family 52 subfamily H member 2),3,27.4,61.8,inactive
"Ppp1r1a (protein phosphatase 1, regulatory inhibitor subunit 1A)",1,80.2,39.8,inactive
"Ppp1r1a (protein phosphatase 1, regulatory inhibitor subunit 1A)",2,96.8,76.4,inactive
"Ppp1r1a (protein phosphatase 1, regulatory inhibitor subunit 1A)",3,113,70.7,inactive
"G6pc2 (glucose-6-phosphatase, catalytic, 2)",1,109,94.2,inactive
"G6pc2 (glucose-6-phosphatase, catalytic, 2)",2,79.3,74,inactive
"G6pc2 (glucose-6-phosphatase, catalytic, 2)",3,81,70.2,inactive
Mrps34 (mitochondrial ribosomal protein S34),1,97.6,79.1,inactive
Mrps34 (mitochondrial ribosomal protein S34),2,24.2,27.3,inactive
Mrps34 (mitochondrial ribosomal protein S34),3,93.7,84.3,inactive
Ubxn6 (UBX domain protein 6),1,92.9,62.3,inactive
Ubxn6 (UBX domain protein 6),2,65.1,79.3,inactive
Ubxn6 (UBX domain protein 6),3,99.2,112,inactive
"Il10rb (interleukin 10 receptor, beta)",1,46.8,81.6,inactive
"Il10rb (interleukin 10 receptor, beta)",2,48.7,55.1,inactive
Or52e18 (olfactory receptor family 52 subfamily E member 18),1,112,65.1,inactive
Or52e18 (olfactory receptor family 52 subfamily E member 18),2,93.1,74.2,inactive
Or52e18 (olfactory receptor family 52 subfamily E member 18),3,75.4,98.3,inactive
Ubr7,1,80.9,75.1,inactive
Ubr7,2,84.4,83.8,inactive
Ubr7,3,83.9,100,inactive
Crlf3 (cytokine receptor-like factor 3),1,71.4,82,inactive
Crlf3 (cytokine receptor-like factor 3),2,96.3,71.3,inactive
Crlf3 (cytokine receptor-like factor 3),3,110,114,inactive
Ccdc42 (coiled-coil domain containing 42),1,114,120,inactive
Ccdc42 (coiled-coil domain containing 42),2,91.2,111,inactive
Ccdc42 (coiled-coil domain containing 42),3,75.4,81.5,inactive
Or4a15 (olfactory receptor family 4 subfamily A member 15),1,65.3,59.6,inactive
Or4a15 (olfactory receptor family 4 subfamily A member 15),2,57.4,51.2,inactive
Or4a15 (olfactory receptor family 4 subfamily A member 15),3,41.3,63.9,inactive
Llgl2 (LLGL2 scribble cell polarity complex component),1,60.3,53.1,inactive
Llgl2 (LLGL2 scribble cell polarity complex component),2,59.8,74.6,inactive
Llgl2 (LLGL2 scribble cell polarity complex component),3,51.9,39,inactive
"Irag2 (inositol 1,4,5-triphosphate receptor associated 2)",1,154,90.1,active
"Irag2 (inositol 1,4,5-triphosphate receptor associated 2)",2,29.8,49,inactive
"Irag2 (inositol 1,4,5-triphosphate receptor associated 2)",3,79.2,48.6,inactive
Bub3 (BUB3 mitotic checkpoint protein),1,34.1,32.6,inactive
Bub3 (BUB3 mitotic checkpoint protein),2,84.4,70,inactive
Bub3 (BUB3 mitotic checkpoint protein),3,109,89.7,inactive
Kank2 (KN motif and ankyrin repeat domains 2),1,166,88,active
Kank2 (KN motif and ankyrin repeat domains 2),2,65.8,57.7,inactive
Kank2 (KN motif and ankyrin repeat domains 2),3,79.6,83,inactive
Mapkapk5 (MAP kinase-activated protein kinase 5),1,119,99.7,inactive
Mapkapk5 (MAP kinase-activated protein kinase 5),2,36.7,45.2,inactive
Mapkapk5 (MAP kinase-activated protein kinase 5),3,92.8,92.7,inactive
Ankrd13c (ankyrin repeat domain 13c),1,134,84.8,active
Ankrd13c (ankyrin repeat domain 13c),2,65.2,78.3,inactive
Ankrd13c (ankyrin repeat domain 13c),3,60.9,50.7,inactive
Ucn (urocortin),1,107,64.4,inactive
Ucn (urocortin),2,19.6,27.5,inactive
Ucn (urocortin),3,95.1,106,inactive
Ip6k3 (inositol hexaphosphate kinase 3),1,61.9,61.1,inactive
Nectin4 (nectin cell adhesion molecule 4),1,84,94.1,inactive
Nectin4 (nectin cell adhesion molecule 4),2,78.8,66.9,inactive
"Pole2 (polymerase (DNA directed), epsilon 2 (p59 subunit))",1,133,92.1,active
"Pole2 (polymerase (DNA directed), epsilon 2 (p59 subunit))",2,68.6,71.2,inactive
Lcn8 (lipocalin 8),1,90.5,86.8,inactive
Lcn8 (lipocalin 8),2,101,70.3,inactive
Lcn8 (lipocalin 8),3,132,63.9,active
Actr10 (ARP10 actin-related protein 10),1,82.4,92,inactive
Actr10 (ARP10 actin-related protein 10),2,68.5,77.1,inactive
"Mfsd2a (MFSD2 lysolipid transporter A, lysophospholipid)",1,106,90.9,inactive
"Mfsd2a (MFSD2 lysolipid transporter A, lysophospholipid)",2,126,87.3,active
Sh3bp5l (SH3 binding domain protein 5 like),1,70.9,74.3,inactive
Sh3bp5l (SH3 binding domain protein 5 like),2,81.4,76.1,inactive
Sh3bp5l (SH3 binding domain protein 5 like),3,75.1,89.5,inactive
Dtl (denticleless E3 ubiquitin protein ligase),1,67.1,84.1,inactive
Dtl (denticleless E3 ubiquitin protein ligase),2,59.5,58.5,inactive
Dtl (denticleless E3 ubiquitin protein ligase),3,90.2,57.5,inactive
Chml (choroideremia-like),1,97.8,45,inactive
Chml (choroideremia-like),2,86.5,96.6,inactive
Chml (choroideremia-like),3,56.5,56.9,inactive

Targets above whose target name starts with L or l:
gene,reagent no.,"GFP, % of control","viability (ATP), % of control",activity call
Llgl2 (LLGL2 scribble cell polarity complex component),1,60.3,53.1,inactive
Llgl2 (LLGL2 scribble cell polarity complex component),2,59.8,74.6,inactive
Llgl2 (LLGL2 scribble cell polarity complex component),3,51.9,39,inactive
Lcn8 (lipocalin 8),1,90.5,86.8,inactive
Lcn8 (lipocalin 8),2,101,70.3,inactive
Lcn8 (lipocalin 8),3,132,63.9,active
